Data reported in PubChem BioAssay AID1487 (National Center for Advancing Translational Sciences (NCATS), 2009).
This is one part of the list. Shown are side measurements of this screen, not its main read-out; they come without a call. The list favours compounds with an active or inconclusive main result. Words in brackets tell the shape of the fitted curve; partial curves, single points and poor fits give uncertain potencies.

Experiment: qHTS Assay for Modulators of Lamin A Splicing
Conditions: HeLa LMNA splicing GFP/RFP minigene ratio, 48 h
In short: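 S3 HeLa cells stably expressing lamin A-EGFP splicing minigene plus DsRed2, 600 cells/well, 48 h compound exposure at 37C. Laser-scanning cytometry; analysed as GFP (500-530 nm)/RFP (575-640 nm) total intensity ratio; 0.5% DMSO vehicle.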

[1] = measured here: RFP viability control channel
[2] = measured here: GFP splicing reporter channel

Structure (SMILES) | AC50 [1] | AC50 [2]
Oc1ccc(-c2nc(-c3ccc(O)c(O)c3)cs2)cc1 | 7.94 µM [rising, partial curve] | –
CCOC(=O)c1ccc(NC(=O)c2c(NCc3cccc(OC)c3OC)sc3c2CCC3)cc1 | – | 0.01 µM [rising, full curve, poor fit]
CCCC(=O)Nc1sc2c(c1C(=O)Nc1ccccn1)CCCC2 | 11.2 µM [falling, single point] | 12.6 µM [falling, partial curve]
COc1ccc(-n2cnc3scc(-c4ccc(OC)c(OC)c4)c3c2=O)cc1 | 35.5 µM [falling, single point] | 35.5 µM [falling, single point]
O=C(c1ccc(Cl)cc1)C(Cn1cncn1)C(Sc1ccccc1)c1ccccc1 (centres undefined) | 31.6 µM [rising, single point] | –
CCOc1cc(/C=C/c2nc3ccccc3s2)ccc1OCC(=O)N1CCOCC1 | 17.8 µM [rising, partial curve] | 10 µM [rising, partial curve, poor fit]
Cc1oc2c(c1C(=O)c1ccccc1)C(=O)C(=O)c1ccccc1-2 | 11.2 µM [falling, partial curve] | 10 µM [falling, partial curve]
CCOC(=O)C(C)On1c(-c2ccc(Cl)cc2)nc2ccc([N+](=O)[O-])cc21 (centres undefined) | 15.8 µM [rising, single point] | –
Cc1cccc(N2CCN(C(=S)c3ccc(-c4ccccc4[N+](=O)[O-])o3)CC2)c1 | 1 µM [rising, partial curve, poor fit] | –
COc1ccc(CCn2c(C)cc(C(=O)CCl)c2C)cc1OC | 3.98 µM [rising, single point] | –
O=C(NC1CCCCC1)C(c1ccncc1)N(C(=O)Cc1cccs1)c1ccccc1 (centres undefined) | 39.8 µM [falling, partial curve, poor fit] | –
COc1ccccc1C/C(N)=N/OC(=O)c1cccc([N+](=O)[O-])c1C | – | 17.8 µM [rising, single point]
CCCCn1nc2cc(C(=O)NCC34CC5CC(CC(C5)C3)C4)ccc2c1OCC | 22.4 µM [rising, single point] | 35.5 µM [rising, single point]
CC(C)n1cc(CN2CCN(CCc3ccccc3)C(CCO)C2)cn1 (centres undefined) | – | 3.98 µM [rising, single point]
O=C1C(Cc2ccc(Br)cc2)SC(=Nc2ccccc2)N1c1ccccc1 (centres undefined) | 35.5 µM [rising, single point] | –
O=C(Nc1cccc2[nH]ncc12)c1ccc(F)cc1 | 4.47 µM [falling, partial curve] | –
Cc1cccc(C(=O)Nc2nnc(SCc3cc(=O)n4cccc(C)c4n3)s2)c1 | 12.6 µM [rising, partial curve, poor fit] | 4.47 µM [rising, partial curve, poor fit]

Structure (SMILES) | AC50 [1] | AC50 [2]
O=C(Cc1ccc(Cl)cc1)NCC(c1cccs1)S(=O)(=O)c1ccc(Cl)cc1 (centres undefined) | 17.8 µM [rising, partial curve] | 1.58 µM [rising, partial curve, poor fit]
Cn1nc(C(=O)Nc2ccc(S(=O)(=O)N3CCOCC3)cc2)c2ccccc2c1=O | – | 0.631 µM [rising, partial curve]
C#Cc1cccc(Nc2ncnc3cc(OCCOC)c(OCCOC)cc23)c1 | – | 5.62 µM [falling, full curve, poor fit]
COc1ccccc1CNc1nc(-c2ccoc2)nc2ccccc12 | 8.91 µM [falling, partial curve] | 7.08 µM [falling, partial curve]
C=CCn1c(SCCC)nc2sc3c(c2c1=O)CCc1ccccc1-3 | – | 12.6 µM [falling, partial curve]
Cc1nn(-c2ccccc2)c(N2CCCC2)c1/C=N/NC(=O)c1cc(-c2ccccn2)nc2ccccc12 | 12.6 µM [rising, partial curve] | –
Cc1cccc(N/N=C(\C(N)=O)C2=NC(C)(C)Cc3ccccc32)c1 | 15.8 µM [rising, partial curve] | 12.6 µM [rising, partial curve]
CCOC(=O)c1c(C)sc(Sc2ccc(Cl)cc2[N+](=O)[O-])c1OC | 35.5 µM [rising, single point] | 35.5 µM [rising, single point]
COc1ccc(N(CC(O)Cn2cnc3ccccc32)S(=O)(=O)c2ccc(C)cc2)cc1 (centres undefined) | 35.5 µM [rising, single point] | –
CC(NC(=O)NC1CCCCC1)c1ccccc1 (centres undefined) | 20 µM [rising, single point] | –
Cc1ccc(NC(=O)C(NC2CCCc3ccccc32)c2ccccc2)c([N+](=O)[O-])c1 (centres undefined) | 15.8 µM [rising, single point] | 7.94 µM [rising, single point]
N#Cc1cccc(-c2nc(NCc3ccccc3)c3ccccc3n2)c1 | 22.4 µM [falling, single point] | 35.5 µM [falling, single point]
COc1ccc(CNc2ncnc3ccc(-c4ccccc4OC)cc23)c(OC)c1 | 11.2 µM [falling, partial curve] | 10 µM [falling, partial curve]
CC1Cc2ccccc2N1C(=O)CSc1nnnn1-c1ccc2c(c1)OCCO2 (centres undefined) | – | 20 µM [rising, partial curve, poor fit]
O=C(CSCc1cc(=O)c2ccccc2[nH]1)Nc1cccc(C(F)(F)F)c1 | 0.562 µM [rising, partial curve, poor fit] | 0.447 µM [rising, partial curve, poor fit]
C=C(C)Cn1c(C)cc(C)c(S(=O)(=O)c2ccccc2C)c1=O | – | 15.8 µM [rising, single point]
Cc1nc2ccc(C(=O)Nc3cccc([N+](=O)[O-])c3)cc2s1 | 0.316 µM [falling, full curve, poor fit] | 3.98 µM [falling, partial curve, poor fit]

Three structures from above, arranged by SMILES length, ascending:
Structure (SMILES) | AC50 [1] | AC50 [2]
C=C(C)Cn1c(C)cc(C)c(S(=O)(=O)c2ccccc2C)c1=O | – | 15.8 µM [rising, single point]
Cc1nc2ccc(C(=O)Nc3cccc([N+](=O)[O-])c3)cc2s1 | 0.316 µM [falling, full curve, poor fit] | 3.98 µM [falling, partial curve, poor fit]
Cc1nn(-c2ccccc2)c(N2CCCC2)c1/C=N/NC(=O)c1cc(-c2ccccn2)nc2ccccc12 | 12.6 µM [rising, partial curve] | –
